Data reported in PubChem BioAssay AID743255 (National Center for Advancing Translational Sciences (NCATS), 2014).
Values joined by “and” are separate entries in the source; they are usually repeats but may differ in a detail not shown here. Equal values may be shown once. The campaign covered roughly 390,000 compounds. About 910 (0.23%) were called active. This list was built around the results that the source calls inconclusive (neither active nor inactive); the mix of calls is not that of the screen. Calls come from the whole dose curve; as a rule, active = well fitted inhibition curve with a large enough effect; inconclusive = small, poorly fitted or top-dose-only effect; inactive = no such curve, though single readings can be large or run the other way. Where the call is inconclusive, the potency comes from a doubtful curve fit.

By UniProt entry, the sequences of proteins in these tests, tags left out. Where a name states a change or a piece, a line headed by the entry shows the natural chain unless it says otherwise.
UniProt O94782: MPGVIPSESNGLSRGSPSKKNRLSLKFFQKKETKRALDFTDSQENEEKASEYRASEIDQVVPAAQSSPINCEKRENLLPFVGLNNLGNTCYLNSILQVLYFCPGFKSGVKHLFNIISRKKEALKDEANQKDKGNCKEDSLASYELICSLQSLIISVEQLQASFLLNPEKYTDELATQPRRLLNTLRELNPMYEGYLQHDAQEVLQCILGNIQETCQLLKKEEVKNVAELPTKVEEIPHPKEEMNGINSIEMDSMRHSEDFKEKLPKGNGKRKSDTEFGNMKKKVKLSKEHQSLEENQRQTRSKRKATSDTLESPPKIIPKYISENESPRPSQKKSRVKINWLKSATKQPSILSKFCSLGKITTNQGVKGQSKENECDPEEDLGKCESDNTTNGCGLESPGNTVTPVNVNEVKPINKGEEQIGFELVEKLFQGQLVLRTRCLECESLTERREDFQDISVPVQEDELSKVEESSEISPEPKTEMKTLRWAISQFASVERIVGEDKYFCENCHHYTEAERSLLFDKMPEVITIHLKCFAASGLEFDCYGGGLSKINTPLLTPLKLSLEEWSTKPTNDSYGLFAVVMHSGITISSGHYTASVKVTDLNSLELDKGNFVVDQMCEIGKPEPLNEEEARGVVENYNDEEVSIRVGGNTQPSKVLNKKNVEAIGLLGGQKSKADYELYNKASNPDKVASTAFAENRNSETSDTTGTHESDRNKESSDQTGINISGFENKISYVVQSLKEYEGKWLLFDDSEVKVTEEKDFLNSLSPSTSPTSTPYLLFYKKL

These compounds were tested against Ubiquitin carboxyl-terminal hydrolase 1 (Homo sapiens) (UniProt O94782) (assay: Inhibitors of USP1/UAF1: Primary Screen). Details: recombinant USP1/UAF1, Ub-Rhodamine cleavage fluorescence; activity change, negative = inhibition: at 57.1 µM (top of the series).
Procedure, shortened: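 1 nM enzyme complex + cpd, 15 min RT; start with Ub-Rho 150nM final; kinetic fluorescence ex 480/em 540, 6 reads q60 s. Buffer 50mM HEPES pH 7.8, 0.5mM EDTA, 0.1 mg/ml BSA, 1mM TCEP, 0.01% Tween-20.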
% is set by controls: 0 for no effect and ±100 for the full control effect; potency is the fitted concentration of half-maximal effect.
Note: nearly all actives have a fitted effect of over 60% in size.

SMILES	Potency	activity change, negative = inhibition
CCOc1ccc(/C=N/NC(=O)c2cc3c(OC)cc(OC)cc3[nH]2)cc1OC	inconclusive: 35.5 µM [inhibitor, partial curve]	
CCOc1ccccc1CNC(=O)C1CCCN(c2nnc(C)c3c(C)n(-c4ccccc4)nc23)C1 (centres undefined)	inactive and inconclusive: 50.1 µM [inhibitor, partial curve, poor fit]	
COC(=O)C1OCOC2C(C(=O)OC)OCOC12 (centres undefined)	inconclusive: 0.447 µM [inhibitor, partial curve, poor fit]	
Cn1c(=O)c(C(=O)O)nn(-c2ccccc2)c1=O	inconclusive: 5.62 µM [inhibitor, single point]	
CCOCCCn1c(=N)c(C(=O)NCc2cccnc2)cc2c(=O)n3ccccc3nc21	inconclusive: 0.0398 µM [inhibitor, full curve, poor fit]	
Cc1ccc(N2C(=O)CCSC23C(=O)N(Cc2ccccc2)c2ccccc23)cc1 (centres undefined)	inconclusive: 50.1 µM [inhibitor, partial curve, poor fit]	
O=c1ccc(-c2ccccc2)nn1Cc1ccc(Cl)cc1	inactive	
Cc1cc(NC(=O)CSc2nc3ccsc3c(=O)n2CCCC(=O)NCCc2ccccc2)no1	inconclusive: 10 µM [inhibitor, partial curve, poor fit]	
COCCC1CCCCN1C(=O)c1cc(COc2ccc(-n3cncn3)cc2)on1 (centres undefined)	inactive	
CN1CCN(S(=O)(=O)c2ccc(N)cc2)CC1	inconclusive: 0.708 µM [inhibitor, full curve]	
NC(=O)CC(NC(=O)c1cccc(Br)c1)c1ccc(N2CCN(c3ccc(F)cc3)CC2)c([N+](=O)[O-])c1 (centres undefined)	inconclusive: 50.1 µM [inhibitor, single point]	
C=C(C)COc1ccc(-c2[nH]ncc2-c2ccccc2)c(O)c1	inactive	
Cc1ccc(OC(=O)COc2ccccc2C)cc1	inconclusive: 50.1 µM [inhibitor, partial curve, poor fit]	
COc1ccc(N2CCN(C(=O)c3cccn3-c3nnc(N4CCCC4)s3)CC2)cc1	inconclusive: 100 µM [inhibitor, partial curve]	
Cc1c(CNC2CCCCC2)c(C(=O)O)c(C)n1Cc1ccc(Cl)cc1	inconclusive: 0.708 µM [inhibitor, full curve, poor fit]	
CCOC(=O)C1CCN(C(=O)Cn2nc(CC)n3c(cc4sccc43)c2=O)CC1	inconclusive: 0.251 µM [inhibitor, full curve, poor fit]	
CSc1ccccc1C(=O)NCC(c1ccco1)N(C)C (centres undefined)	inconclusive: 50.1 µM [inhibitor, partial curve, poor fit]	
Cc1cc(C(=O)c2ccc(Cl)cc2)c(NC(=O)CCl)s1	inactive	
COc1c(Cl)cc(C(=O)N(Cc2ccccc2F)C2CCS(=O)(=O)C2)cc1Cl (centres undefined)	inactive	
CCC(Sc1nc(-c2ccc(F)cc2)nc2c1Cc1c(CO)cnc(C)c1O2)C(=O)Nc1ccc(F)cc1 (centres undefined)	inconclusive: 4.47 µM [inhibitor, partial curve]	
COc1cc(/C=C(\C#N)c2nc3ccccc3[nH]2)ccc1OCc1ccccc1F	inconclusive: 31.6 µM [inhibitor, single point]	
NS(=O)(=O)c1ccc(N=Nc2c(O)ccc3ccccc23)cc1	inactive	

SMILES	Potency	activity change, negative = inhibition
COc1cc(SC)ccc1C(=O)N1CCc2ccccc21	inactive	
CC(Cc1c[nH]c2ccccc12)NC(N)=O (centres undefined)	inactive	
Cc1cc(C)cc(NC(=O)N2CCC(CN3CCCCCC3)CC2)c1	inactive	
COc1ccc(NC(=O)c2c(C(F)(F)F)nn(C)c2Cl)cc1	inconclusive: 35.5 µM [inhibitor, partial curve]	
COC(=O)N/N=C/c1ccc(-c2ccc(C)c(Cl)c2)o1	inactive	
CCCN(CC(=O)Nc1ccccc1OC)C(=O)Cn1c(=O)oc2ccccc21	inactive	
CCO[C@H]1OC(C(=O)Nc2ccccc2)=C[C@@H](c2ccc(Br)cc2)[C@@H]1CCCO	inconclusive: 50.1 µM [inhibitor, partial curve, poor fit]	
NC(N)=NC(=O)c1nc(Cl)c(N2CCCCCC2)nc1N	inconclusive: 0.126 µM [inhibitor, full curve, poor fit]	
COc1ccc(N=Cc2sc(O)c3ccccc23)cc1	inconclusive: 11.2 µM [inhibitor, partial curve]	
Cc1cc(N2C(=O)Cc3ccccc3C2=O)ccc1C(C)C	inconclusive: 20 µM [inhibitor, partial curve]	
COc1cccc(-c2noc(CCC(=O)N3CCN(c4cc(C)ccc4C)CC3)n2)c1	inconclusive: 35.5 µM [inhibitor, partial curve, poor fit]	
CC1=C(C(=O)OCc2ccccc2)C(c2ccc3ccccc3c2)NC(=O)N1CCCCCC(=O)O (centres undefined)	inconclusive: 39.8 µM [inhibitor, partial curve]	
CCOC(=O)c1ccc2c(c1)nc(SCC(=O)c1cc3ccccc3o1)n2CC	inconclusive: 31.6 µM [inhibitor, partial curve, poor fit]	
CC(C)(C)C1CCC(=O)N(CCOc2ccccc2)CC1 (centres undefined)	inconclusive: 1.12 µM [inhibitor, full curve]	
CCOc1ccc(C(=O)c2cn(CC(=O)Nc3ccc4c(c3)OCO4)c3ccc(OC)cc3c2=O)cc1	inconclusive: 0.112 µM [inhibitor, full curve, poor fit]	
CCN(CC)C(=O)[C@H]1CC(CC(=O)NCCCN(C)C)C(=O)N2CCc3c([nH]c4ccccc34)[C@]12C (some centres undefined)	inconclusive: 50.1 µM [inhibitor, partial curve, poor fit]	
Cc1nc2ccccc2c(=O)n1NC(=O)Nc1ccccc1	inconclusive: 0.447 µM [inhibitor, full curve, poor fit]	
O=C(CSc1nc2ncccc2[nH]1)Nc1cc(F)ccc1F	inactive	
COc1cccc(-c2nnc(NC(=O)C3CCCCC3)o2)c1	inconclusive: 39.8 µM [inhibitor, partial curve]	
COc1ccc(NC(=O)c2cc3ccccc3o2)cc1S(=O)(=O)N1CCCCC1	inconclusive: 28.2 µM [inhibitor, partial curve]	
O=C(Nc1ccc(Cl)cc1N1CCOCC1)C1CCCCC1	inactive	
CCOC(=O)c1ccc(S(=O)(=O)N2CCC(N3CCCCCC3)CC2)cc1	inactive	

SMILES	Potency	activity change, negative = inhibition
Cc1ccccc1CN1c2ccccc2-c2nc(SCC(=O)c3ccccc3)ncc2S1(=O)=O	inconclusive: 11.2 µM [inhibitor, partial curve, poor fit]	
O=C(COc1ccc2ccccc2c1)NC1CC(=O)N(c2ccc(F)cc2)C1 (centres undefined)	inconclusive: 0.708 µM [inhibitor, full curve, poor fit]	
CC(C)c1ccc(C(C(=O)NC2CCCCC2)N(C(=O)c2csnn2)C2CC2)cc1 (centres undefined)	inconclusive: 3.98 µM [inhibitor, partial curve]	
CC(C)c1ccc(Nc2nnc(SCC(=O)c3nnc(-c4ccccc4)o3)s2)cc1	inconclusive: 35.5 µM [inhibitor, partial curve]	
O=C(c1ccccc1Sc1ccccc1[N+](=O)[O-])N1CCCCC1	inconclusive: 6.31 µM [inhibitor, single point]	
CCN(CC)c1ccc(/C=C2\CCC(/C=N/NC(=O)c3ccc(=O)n(C)c3)=C2N2CCOCC2)cc1	inconclusive: 6.31 µM [inhibitor, partial curve]	
COCCN(C(=O)c1ccccc1)c1nc(-c2ccc(OC)cc2)cs1	inconclusive: 22.4 µM [inhibitor, partial curve]	
Cc1ccc(N(CC(=O)NCc2ccco2)C(=O)CCC(=O)Nc2nccs2)cc1		inconclusive: -12.5% [inhibitor]
NC(=NCCCCCCN=C(N)/N=C(\N)Nc1ccc(Cl)cc1)/N=C(\N)Nc1ccc(Cl)cc1	inconclusive: 39.8 µM [inhibitor, partial curve, poor fit]	
CN(C)c1ccc(C(=O)OCC(=O)NC2CCCCCC2)cc1	inactive	
Cc1oc2ncn(CC(C)C)c(=O)c2c1C(=O)N(CCN(C)C)Cc1ccccc1	inconclusive: 50.1 µM [inhibitor, partial curve, poor fit]	
COc1ccc(C(=O)NNC(=O)c2ccc(F)c(S(=O)(=O)N3CCOCC3)c2)cc1	inconclusive: 5.62 µM [inhibitor, full curve, poor fit]	
Cc1cccc(N(O)C(=O)Nc2cccc(Cl)c2)c1	inconclusive: 44.7 µM [inhibitor, partial curve]	
O=C(O)COc1ccccc1/C=N/NC(=O)CSc1nc2ccccc2n1Cc1ccc(Cl)cc1	inconclusive: 50.1 µM [inhibitor, partial curve, poor fit]	
CN(C)c1ccc(/C=C/C=N/Nc2nc(N3CCOCC3)nc(N3CCOCC3)n2)cc1	inconclusive: 22.4 µM [inhibitor, partial curve]	
Cc1ccc(Nc2nc(-c3ccc(C)cc3)c(CC(=O)O)s2)cc1	inactive	
CS(=O)(=O)c1ccc(C(=O)NCC2(N3CCOCC3)CCCCC2)cc1	inconclusive: 11.2 µM [inhibitor, single point]	
CC(C)(C)c1nnc2sc(SCC(=O)N3CCc4ccccc43)nn2c1=O	inactive	
CCOC(=O)c1c(C)n(C)c2ccc(OCC(O)CN3CCCCCC3)cc12 (centres undefined)	inconclusive: 4.47 µM [inhibitor, partial curve]	
CC(C)C[C@@H](CSc1ccc(Br)cc1)N1CCN(CCc2ccccc2)CCC1=O	inconclusive: 5.62 µM [inhibitor, full curve, poor fit]	

Copied from the listing (16 entries):
SMILES	Potency	activity change, negative = inhibition
Cc1ccccc1CN1c2ccccc2-c2nc(SCC(=O)c3ccccc3)ncc2S1(=O)=O	inconclusive: 11.2 µM [inhibitor, partial curve, poor fit]	
O=C(COc1ccc2ccccc2c1)NC1CC(=O)N(c2ccc(F)cc2)C1 (centres undefined)	inconclusive: 0.708 µM [inhibitor, full curve, poor fit]	
CC(C)c1ccc(C(C(=O)NC2CCCCC2)N(C(=O)c2csnn2)C2CC2)cc1 (centres undefined)	inconclusive: 3.98 µM [inhibitor, partial curve]	
CC(C)c1ccc(Nc2nnc(SCC(=O)c3nnc(-c4ccccc4)o3)s2)cc1	inconclusive: 35.5 µM [inhibitor, partial curve]	
O=C(c1ccccc1Sc1ccccc1[N+](=O)[O-])N1CCCCC1	inconclusive: 6.31 µM [inhibitor, single point]	
CCN(CC)c1ccc(/C=C2\CCC(/C=N/NC(=O)c3ccc(=O)n(C)c3)=C2N2CCOCC2)cc1	inconclusive: 6.31 µM [inhibitor, partial curve]	
COCCN(C(=O)c1ccccc1)c1nc(-c2ccc(OC)cc2)cs1	inconclusive: 22.4 µM [inhibitor, partial curve]	
Cc1ccc(N(CC(=O)NCc2ccco2)C(=O)CCC(=O)Nc2nccs2)cc1		inconclusive: -12.5% [inhibitor]
NC(=NCCCCCCN=C(N)/N=C(\N)Nc1ccc(Cl)cc1)/N=C(\N)Nc1ccc(Cl)cc1	inconclusive: 39.8 µM [inhibitor, partial curve, poor fit]	
CN(C)c1ccc(C(=O)OCC(=O)NC2CCCCCC2)cc1	inactive	
Cc1oc2ncn(CC(C)C)c(=O)c2c1C(=O)N(CCN(C)C)Cc1ccccc1	inconclusive: 50.1 µM [inhibitor, partial curve, poor fit]	
COc1ccc(C(=O)NNC(=O)c2ccc(F)c(S(=O)(=O)N3CCOCC3)c2)cc1	inconclusive: 5.62 µM [inhibitor, full curve, poor fit]	
Cc1cccc(N(O)C(=O)Nc2cccc(Cl)c2)c1	inconclusive: 44.7 µM [inhibitor, partial curve]	
O=C(O)COc1ccccc1/C=N/NC(=O)CSc1nc2ccccc2n1Cc1ccc(Cl)cc1	inconclusive: 50.1 µM [inhibitor, partial curve, poor fit]	
CN(C)c1ccc(/C=C/C=N/Nc2nc(N3CCOCC3)nc(N3CCOCC3)n2)cc1	inconclusive: 22.4 µM [inhibitor, partial curve]	
Cc1ccc(Nc2nc(-c3ccc(C)cc3)c(CC(=O)O)s2)cc1	inactive	
